For one substance, binding results are on record in publication PMC12336858.

Amino acid sequences for entries named in this document (tags omitted). A change or cut given only in a name is not applied to a line headed by its entry.
UniProt Q80TL4: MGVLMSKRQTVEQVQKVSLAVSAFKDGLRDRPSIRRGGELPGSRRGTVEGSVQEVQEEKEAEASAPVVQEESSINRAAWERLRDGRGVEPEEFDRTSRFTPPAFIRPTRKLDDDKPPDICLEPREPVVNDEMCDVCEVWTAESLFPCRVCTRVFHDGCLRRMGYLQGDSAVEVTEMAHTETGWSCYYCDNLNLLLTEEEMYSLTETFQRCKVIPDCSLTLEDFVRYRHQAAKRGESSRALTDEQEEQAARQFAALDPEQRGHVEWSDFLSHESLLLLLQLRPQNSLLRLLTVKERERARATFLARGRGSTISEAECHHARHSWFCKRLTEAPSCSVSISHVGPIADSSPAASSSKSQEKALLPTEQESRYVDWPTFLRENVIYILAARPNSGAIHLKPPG
UniProt P04899: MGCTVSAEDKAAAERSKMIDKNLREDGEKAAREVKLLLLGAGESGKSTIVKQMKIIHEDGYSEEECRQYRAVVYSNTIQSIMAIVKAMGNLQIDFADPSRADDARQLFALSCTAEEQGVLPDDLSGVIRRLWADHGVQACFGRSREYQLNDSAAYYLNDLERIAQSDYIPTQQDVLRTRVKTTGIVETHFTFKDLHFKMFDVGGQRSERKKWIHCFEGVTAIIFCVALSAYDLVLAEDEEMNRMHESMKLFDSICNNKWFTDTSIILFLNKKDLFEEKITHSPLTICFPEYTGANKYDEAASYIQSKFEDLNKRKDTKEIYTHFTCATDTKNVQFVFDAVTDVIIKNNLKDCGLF

For the assay, the target named is GST-tagged GINIP protein (UniProt Q80TL4). Kind of assay: pull-down; purified GST-bait (2 μg/mL) included in the cell lysis buffer (10 mM Tris-HCl pH 7.5, 150 mM NaCl, 1% Triton X-100, 5 mM DTT, no EDTA); glutathione Sepharose 4B, 10 min at 4 °C; western blot with GluGlu antibody; cells stimulated with GPCR ligands (DREADD ligand) or fluid shear stress, or expressing GTPase-deficient mutants; only the target purified. (A western blot detects proteins with antibodies after separation by electrophoresis.)

No constants are given. Whether binding was seen depends on the method and setting. In cells and extracts the contact can be indirect. Binding can be weak; no strength is given.

For the substance “GluGlu-epitope inserted human Gi2 Q205L protein (from UniProt P04899)”, the binding entry was “binds”.
